According to doi:10.1101/2024.11.26.625568:
Results are given in words; binding and its absence hold for the method and conditions named.

Molecular target: NuMA MTBD1 (human) (UniProt Q14980)
Experiment: mass photometry; single protein diluted to 5-20 nM in 50 mM HEPES pH 7.4, 150 mM NaCl, 1 mM EGTA, 10% glycerol; TwoMP mass photometer; both purified

B1: NuMA MTBD1 (domain or fragment, UniProt Q14980 1811-1985)
chain: TTQIINITMTKKLDVEEPDSANSSFYSTRSAPASQASLRATSSTQSLARLGSPDYGNSALLSLPGYRPTTRSSARRSQAGVSSGAPPGRNSFYMGTCQDEPEQLDDWNRIAELQQRNRVCPPHLKTCYPLESRPSLSLGTITDEEMKTGDPQETLRRASMQPIQIAEGTGITTRQ
- binding: no binding (tested: 5–20 nM)
